Numbering of substitutions follows the chain as printed. These are yes or no findings as the source states them, for the method shown. In cells and extracts the contact can be indirect. Some results given as binding are weak or reduced against the parent protein; the word gives no strength. Where a sequence is shown, tags or fusion partners need not be part of it. One block for each molecule: values may come before it.
Tests used:
[1] = target: T1, Flag-tagged human DVL3 (Dishevelled 3), wild type (human) (UniProt Q92997); assay: co-IP; endogenous CK1ε with overexpressed DVL3 in HEK293 cells, without or with co-expressed TTLL11
T1 sequence: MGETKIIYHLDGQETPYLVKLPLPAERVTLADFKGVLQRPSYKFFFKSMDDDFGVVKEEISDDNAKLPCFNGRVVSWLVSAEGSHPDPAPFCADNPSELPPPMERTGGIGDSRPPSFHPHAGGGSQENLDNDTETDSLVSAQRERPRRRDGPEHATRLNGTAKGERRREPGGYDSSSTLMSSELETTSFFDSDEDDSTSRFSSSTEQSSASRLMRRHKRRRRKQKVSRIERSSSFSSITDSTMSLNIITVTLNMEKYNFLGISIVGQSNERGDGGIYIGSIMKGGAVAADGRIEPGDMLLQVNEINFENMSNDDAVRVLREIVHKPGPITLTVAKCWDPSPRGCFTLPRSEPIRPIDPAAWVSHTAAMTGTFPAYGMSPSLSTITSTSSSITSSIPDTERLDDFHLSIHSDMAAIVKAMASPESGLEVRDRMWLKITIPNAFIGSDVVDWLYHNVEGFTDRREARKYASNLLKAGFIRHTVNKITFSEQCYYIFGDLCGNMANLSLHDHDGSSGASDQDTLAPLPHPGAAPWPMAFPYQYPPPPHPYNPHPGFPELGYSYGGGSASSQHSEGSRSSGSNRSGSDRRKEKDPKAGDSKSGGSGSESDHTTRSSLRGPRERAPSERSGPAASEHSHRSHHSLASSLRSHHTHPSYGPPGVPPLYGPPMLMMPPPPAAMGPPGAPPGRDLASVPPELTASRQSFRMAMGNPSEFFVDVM

Sequences of proteins named here, by UniProt entry; tags and fusion partners are left off.
UniProt P49674: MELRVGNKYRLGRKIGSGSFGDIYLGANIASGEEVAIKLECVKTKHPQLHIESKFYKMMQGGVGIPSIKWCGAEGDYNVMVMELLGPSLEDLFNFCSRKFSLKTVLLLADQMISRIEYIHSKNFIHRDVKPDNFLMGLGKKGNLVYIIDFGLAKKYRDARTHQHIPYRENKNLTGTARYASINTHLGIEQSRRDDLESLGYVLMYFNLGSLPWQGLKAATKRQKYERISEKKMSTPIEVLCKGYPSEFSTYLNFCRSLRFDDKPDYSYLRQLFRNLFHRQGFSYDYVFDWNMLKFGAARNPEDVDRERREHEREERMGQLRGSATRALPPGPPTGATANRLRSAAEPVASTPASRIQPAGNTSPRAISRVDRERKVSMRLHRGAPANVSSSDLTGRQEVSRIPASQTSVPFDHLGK

[2] = target: T1, Flag-tagged human DVL3 (Dishevelled 3), wild type (human); assay: co-IP; Flag-DVL (DVL1, DVL2, DVL3 or DVL3 truncation mutants) and TTLL11 overexpressed in HEK293T; IP anti-Flag, TTLL11 detected with anti-GFP; lysis buffer 50 mM Tris pH 7.4, 150 mM NaCl, 1 mM EDTA, 0.5% NP40, 4 °C; also after 3 h of 100 ng/ml Wnt3a or Wnt5a (interaction not modified)
Flag-DVL1 (human) = target: T2, Flag-DVL1 (human) (UniProt O14640); assay: as above
T2 sequence: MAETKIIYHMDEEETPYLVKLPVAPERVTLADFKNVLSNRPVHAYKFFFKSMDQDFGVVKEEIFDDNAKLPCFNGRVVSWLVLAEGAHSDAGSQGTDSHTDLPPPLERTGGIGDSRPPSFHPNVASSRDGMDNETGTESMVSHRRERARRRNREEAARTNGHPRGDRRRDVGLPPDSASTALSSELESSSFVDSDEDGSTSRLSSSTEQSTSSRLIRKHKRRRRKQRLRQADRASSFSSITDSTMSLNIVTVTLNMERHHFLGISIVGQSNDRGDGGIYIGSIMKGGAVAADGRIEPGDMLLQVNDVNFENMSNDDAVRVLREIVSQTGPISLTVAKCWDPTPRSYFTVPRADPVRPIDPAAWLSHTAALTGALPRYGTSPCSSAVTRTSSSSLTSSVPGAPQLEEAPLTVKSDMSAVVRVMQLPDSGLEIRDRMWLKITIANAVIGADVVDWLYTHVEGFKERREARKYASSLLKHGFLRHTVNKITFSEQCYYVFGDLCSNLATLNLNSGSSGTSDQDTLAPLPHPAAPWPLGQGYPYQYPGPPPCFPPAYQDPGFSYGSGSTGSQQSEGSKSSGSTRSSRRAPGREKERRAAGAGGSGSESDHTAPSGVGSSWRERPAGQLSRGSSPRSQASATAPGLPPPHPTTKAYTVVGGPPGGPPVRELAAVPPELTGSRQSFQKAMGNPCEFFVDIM

[3] = target: T1, Flag-tagged human DVL3 (Dishevelled 3), wild type (human); assay: co-IP; Flag-DVL3 variants co-expressed with EYFP-tagged CCP1, CCP5 or CCP6 in HEK293T; IP anti-Flag (DVL3) with WB GFP, and IP anti-GFP (CCPs) with WB Flag
[4] = target: T3, Flag-DVL3 E710A/D714A (glutamylation-defective) (human) (UniProt Q92997); assay: as above
T3 sequence: T1 sequence with E710A, D714A

B3: EYFP-tagged CCP1 (enzyme, UniProt Q641K1 1-1218)
chain: MSKLKVVGEKSLTNSSRVVGLLAQLEKINTDSTESDTARYVTSKILHLAQSQEKTRREMTTKGSTGMEVLLSTLENTKDLQTVLNILSILIELVSSGGGRRASFLVAKGGSQILLQLLMNASKDSPPHEEVMVQTHSILAKIGPKDKKFGVKARVNGALTVTLNLVKQHFQNYRLVLPCLQLLRVYSTNSVNSVSLGKNGVVELMFKIIGPFSKKNSGLMKVALDTLAALLKSKTNARRAVDRGYVQVLLTIYVDWHRHDNRHRNMLIRKGILQSLKSVTNIKLGRKAFIDANGMKILYNTSQECLAVRTLDPLVNTSSLIMRKCFPKNRLPLPTIKSSFHFQLPIIPVTGPVAQLYSLPPEVDDVVDESDDNDDIDLEVENELENEDDLDQSFKNDDIETDINKLRPQQVPGRTIEELKMYEHLFPELVDDFQDYELISKEPKPFVFEGKARGPIVVPTAGEEVPGNSGSVKKGVVMKERASPKGEEAKEDPKGHDRTLPQQLGGQSRVAPSAHSFNNDLVKALDRITLQNVPSQVASGLNAGMRKDFGLPLTVLSCTKACPHVAKCGSTLFEGRTVHLGKLCCTGVETEDDEDTESHSSTEQAPSVEASDGPTLHDPDLYIEIVKNTKSVPEYSEVAYPDYFGHIPPPFKEPILERPYGVQRTKIAQDIERLIHQNDIIDRVVYDLDNPTYTTPEEGDTLKFNSKFESGNLRKVIQIRKSEYDLILNSDINSNHYHQWFYFEVSGMRPGVAYRFNIINCEKSNSQFNYGMQPLMYSVQEALNARPWWIRMGTDICYYKNHFSRSSVAAGGQKGKSYYTITFTVNFPHKDDVCYFAYHYPYTYSTLQMHLQKLESAHNPQQIYFRKDVLCETLSGNICPLVTITAMPESNYYEHICQFRTRPYIFLSARVHPGETNASWVMKGTLEYLMSNSPTAQSLRESYIFKIVPMLNPDGVINGNHRCSLSGEDLNRQWQSPNPELHPTIYHAKGLLQYLAAVKRLPLVYCDYHGHSRKKNVFMYGCSIKETVWHTHDNSASCDIVEDMGYRTLPKILSHIAPAFCMSSCSFVVEKSKESTARVVVWREIGVQRSYTMESTLCGCDQGRYKGLQIGTRELEEMGAKFCVGLLRLKRLTSSLEYNLPSNLLDFENDLIESSCKVTSPTTYVLDEDEPRFLEEVDYSAESNDELDVELAENTGDYEPSAQEEALSDSEVSRTHLI
binding [3]: binds
binding [4]: binds

B4: EYFP-tagged CCP5 (enzyme, UniProt Q09M02 1-886)
chain: MELRCGGLLFSSRFDSGNLAHVEKVETVSSDGEGVGGVATAPASGSAASPDYEFNVWTRPDCAETEYENGNRSWFYFSVRGGTPGKLIKINIMNMNKQSKLYSQGMAPFVRTLPSRPRWERIRERPTFEMTETQFVLSFVHRFVEGRGATTFFAFCYPFSYSDCQDLLSQLDQRFSENYSTHSSPLDSIYYHRELLCYSLDGLRVDLLTITSCHGLRDDREPRLEQLFPDLGTPRPFRFTGKRIFFLSSRVHPGETPSSFVFNGFLDFILRPDDPRAQTLRRLFVFKLIPMLNPDGVVRGHYRTDSRGVNLNRQYLKPDAVLHPAIYGAKAVLLYHHVHSRLNAKSPTNQQPTLHLPPEAPLSDLEKANNLHNEAHLGQSPDGENPATWPETEPAEEKTDPVWLMPQPIPELEEPAPDTIPPKESGVAYYVDLHGHASKRGCFMYGNSFSDESTQVENMLYPKLISLNSAHFDFQGCNFSEKNMYARDRRDGQSKEGSGRVAIYKASGIIHSYTLECNYNTGRSVNSIPAACHDNGRASPPPPPAFPSRYTVELFEQVGRAMAIAALDMAECNPWPRIVLSEHSSLTNLRAWMLRHVRNSRGLTSAGNMGASKKRGARTPPKSNNSLPVSCSENALSRVRSFSTGTSTGGSSSSQQNSPQMKNSPSFPFHGSRTAGLPGLGSSTQKVSHRVLGPVREPRCSDRRRRQQPLNHRSTTSSLAPSPTLASSGPTSSRNMGSCLLPNSLSLSGSSCSFSSSGDKPEAVMVIGKSLLGAGARIPCIRTRLQARPRLGRSSPPTRRGMRGSSPTSPIPQTRESSELEPGPHSATPGLPQAGPPRPRSAPAFSPISCTLSDSPSRICYSRGLLNQCEVCFVPKSPPLTISPRV
binding [3]: binds
binding [4]: binds

More lines, now with the values ahead:

binding [1]: binds
Molecule: casein kinase 1 ε (CK1ε), endogenous (from UniProt P49674 1-416) (enzyme)

binding [2]: binds
binding (Flag-DVL1 (human)): binds
B1: human TTLL11 (hTTLL11), EYFP-tagged (enzyme, UniProt Q8NHH1 1-710)
chain: MRRGSSESELAARWEAEAVAAAKAAAKAEAEATAETVAEQVRVDAGAAGEPECKAGEEQPKVLAPAPAQPSAAEEGNTQVLQRPPPTLPPSKPKPVQGLCPHGKPRDKGRSCKRSSGHGSGENGSQRPVTVDSSKARTSLDALKISIRQLKWKEFPFGRRLPCDIYWHGVSFHDNDIFSGQVNKFPGMTEMVRKITLSRAVRTMQNLFPEEYNFYPRSWILPDEFQLFVAQVQMVKDDDPSWKPTFIVKPDGGCQGDGIYLIKDPSDIRLAGTLQSRPAVVQEYICKPLLIDKLKFDIRLYVLLKSLDPLEIYIAKDGLSRFCTEPYQEPTPKNLHRIFMHLTNYSLNIHSGNFIHSDSASTGSKRTFSSILCRLSSKGVDIKKVWSDIISVVIKTVIALTPELKVFYQSDIPTGRPGPTCFQILGFDILLMKNLKPILLEVNANPSMRIEHEHELSPGVFENVPSLVDEEVKVAVIRDTLRLMDPLKKKRENQSQQLEKPFAGKEDALDGELTSAPDCNANPEAHLPSICLKQVFPKYAKQFNYLRLVDRMANLFIRFLGIKGTMKLGPTGFRTFIRSCKLSSSSLSMAAVDILYIDITRRWNSMTLDQRDSGMCLQAFVEAFFFLAQRKFKMLPLHEQVASLIDLCEYHLSLLDEKRLVCGRGVPSGGRPPHRGPPQEPSPSAQPAGDNPPPRTSCANKLSHPRHTLS

binding [3]: binds
binding [4]: binds
B2: EYFP-tagged CCP6 (enzyme, UniProt Q09LZ8 1-540)
chain: MAERSQTAPEAGNDTGNEDAIGGNVNKYIVLPNGYSGQPKKGHLTFDACFESGNLGRVEQVSDFEYDLFIRPDTCNPRFRVWFNFTVENVKELQRVIFNIVNFSKTKSLYRDGMAPMVKSTSRPKWQRLPPKNVYYYRCPDHRKNYVMSFAFCFDREDDIYQFAYCYPYTYTRFQHYLDSLQKKNMDYFFREQLGQSVQQRQLDLLTITSPENLREGSEKKVIFITGRVHPGETPSSFVCQGIIDFLVSQHPIARVLREHLVFKIAPMLNPDGVYLGNYRCSLMGFDLNRHWLDPSPWAHPTLHGVKQLIIKMYNDPKTSLEFYIDIHAHSTMMNGFMYGNIFEDEERFQRQSIFPKLLCQNAEDFSYTSTSFNRDAVKAGTGRRFLGGLLDHSSYCYTLEVSFYSYIIGGTTAAVPYTEEAYMKLGRNVARTFLDYYRLNSLVEKIAVPMPRLRSKEERRLGWEHPSCLRAEQPLEVLGIPMCSGKALNEHLGNDIQWHLDCGSSTLPLGLISCSPSSSASWNDMAMSNSILLPDHSFH

— article PMC11574253
